Reference: the RNAGym collection of RNA variant scans (doi:10.1126/science.aae0568)
This sample is rich in variants without activity.

B1: tRNA (parent)
chain: GUUCCGUUGGCGUAAUGGUAACGCGUCUCCCUCCUAAGGAGAAGACUGCGGGUUCGAGUCCCGUACGGAACG

Variants of: B1
Experiment: yeast fitness relative to wild type (ratio to wild type); higher = fitter; tRNA-Arg(CCU), competitive growth, 37 C, YPD
How it was run: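 Genotype frequency changes were the basis for Darwinian fitness relative to wild type. The frequencies came from 100-nucleotide paired-end sequencing of gene amplicons from the start population and each end population of pooled yeast strains with tRNA-Arg(CCU) gene variants at the native locus. Competition ran in YPD at 37°C for 24 hours in six replicates, genotypes needed ≥ 100 starting reads, and estimates < 0.5 were set to 0.5.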

Compared with C27U A45G U53C, C27U C29A G38C A57G A65C is lower in yeast fitness: 0.544 for the first, ≤ 0.5 for the second.

C27U C29G A37C and C27U C29U C49G U54C cannot be ordered by yeast fitness: ≤ 0.5 for the first, ≤ 0.5 for the second.

Compared with C27U C29U C62U, C27U C30A G51A C62A G67A is lower in yeast fitness: 0.578 for the first, ≤ 0.5 for the second.

C27U C30U A42C and C27U C30U C34G A37C cannot be ordered by yeast fitness: ≤ 0.5 for the first, ≤ 0.5 for the second.

Compared with C27U C33A C49G, C27U C33U C66U is higher in yeast fitness: ≤ 0.5 for the first, 0.536 for the second.

C27U C33U G48C and C27U C34U C55A cannot be ordered by yeast fitness: ≤ 0.5 for the first, ≤ 0.5 for the second.

Compared with C27U C34U G44A A65G, C27U C61U is higher in yeast fitness: ≤ 0.5 for the first, 1.01 for the second.

C27U G38C G67A and C27U U35A G50C G51C A69U cannot be ordered by yeast fitness: ≤ 0.5 for the first, ≤ 0.5 for the second.

C27U U35G A42U G63C and U28A A36U C61A A69U cannot be ordered by yeast fitness: ≤ 0.5 for the first, ≤ 0.5 for the second.

U28A A40U C61G and U28A C29G A69U cannot be ordered by yeast fitness: ≤ 0.5 for the first, ≤ 0.5 for the second.

First: U28A C31A
Second: U28A G41C A42U G52A
The yeast fitness of the first is higher: 0.687 for the first, ≤ 0.5 for the second.

Going from U28A U54A to U28C A36C, the yeast fitness falls from 0.594 to 0.579.

U28C A43U U47A and U28C A57G C66G cannot be ordered by yeast fitness: ≤ 0.5 for the first, ≤ 0.5 for the second.

Going from U28C A70U to U28C C30A G39A C66U, the yeast fitness falls from 0.87 to 0.594.

U28C C61G A65G and U28C C61G A69U cannot be ordered by yeast fitness: ≤ 0.5 for the first, ≤ 0.5 for the second.

Compared with U28C U35A A40U A57U, U28C U64C is higher in yeast fitness: ≤ 0.5 for the first, 0.877 for the second.

Going from U28G A37G G50A A69C to U28G A42C A57C, the yeast fitness rises from ≤ 0.5 to 0.627.

U28G C33G A70C and U28G C34G G44C cannot be ordered by yeast fitness: ≤ 0.5 for the first, ≤ 0.5 for the second.

Going from U28G U54G A65C G67A to C29A A37U A43C, the yeast fitness rises from ≤ 0.5 to 0.733.

C29A A43G A57U and C29A A45C C46G G68C cannot be ordered by yeast fitness: ≤ 0.5 for the first, ≤ 0.5 for the second.

C29A C30G A45U and C29A C30G A57G cannot be ordered by yeast fitness: ≤ 0.5 for the first, ≤ 0.5 for the second.

C29A C30U C34U C61U C66A and C29A C30U C46U G58C cannot be ordered by yeast fitness: ≤ 0.5 for the first, ≤ 0.5 for the second.

C29A C33G A70G and C29A C34G C55G cannot be ordered by yeast fitness: ≤ 0.5 for the first, ≤ 0.5 for the second.

C29A C66G A70U and C29A G44C A69U cannot be ordered by yeast fitness: ≤ 0.5 for the first, ≤ 0.5 for the second.

Compared with C29A G67U G68C A69U, C29G A40C A57C is higher in yeast fitness: ≤ 0.5 for the first, 0.551 for the second.

C29G C31G C49A and C29G C33U G56U cannot be ordered by yeast fitness: ≤ 0.5 for the first, ≤ 0.5 for the second.

First: C29G C46U A57G
Second: C29G C55G A57G A65C
The yeast fitness of the first is higher: 0.642 for the first, ≤ 0.5 for the second.

Going from C29G G50A U64C to C29G G68U, the yeast fitness rises from ≤ 0.5 to 0.68.

Compared with C29G U32A C62A, C29G U35C A57U is lower in yeast fitness: 0.608 for the first, ≤ 0.5 for the second.

C29G U47A C55G and C29U A37U G39C cannot be ordered by yeast fitness: ≤ 0.5 for the first, ≤ 0.5 for the second.

First: C29U A42U A45C
Second: C29U A43G G44A C46A
The yeast fitness of the first is lower: 0.51 for the first, 0.609 for the second.

C29U A45G C46G G50A and C29U C30U C49G A65U cannot be ordered by yeast fitness: ≤ 0.5 for the first, ≤ 0.5 for the second.

C29U C31U A45U C61U C62G A69C and C29U C31U G41C cannot be ordered by yeast fitness: ≤ 0.5 for the first, ≤ 0.5 for the second.

C29U C31U U59C C66U and C29U C33A C34U C46G A57C cannot be ordered by yeast fitness: ≤ 0.5 for the first, ≤ 0.5 for the second.

C29U C49U C55G G58A and C29U G38C C49U G68A cannot be ordered by yeast fitness: ≤ 0.5 for the first, ≤ 0.5 for the second.

C29U G44C U47C G52A and C29U U32C C60G cannot be ordered by yeast fitness: ≤ 0.5 for the first, ≤ 0.5 for the second.

C29U U35A C61G and C29U U47A C55G cannot be ordered by yeast fitness: ≤ 0.5 for the first, ≤ 0.5 for the second.

C30A A40C C46U C60U C66U and C30A C49G C55A cannot be ordered by yeast fitness: ≤ 0.5 for the first, ≤ 0.5 for the second.

Compared with C30A G39A A42G G51A, C30A G50U is higher in yeast fitness: ≤ 0.5 for the first, 0.816 for the second.

First: C30G A37C A45G
Second: C30G A37C C46G G56A
The yeast fitness of the first is higher: 0.633 for the first, ≤ 0.5 for the second.

C30G C33G A70G and C30G C46U C49G G63U U64A cannot be ordered by yeast fitness: ≤ 0.5 for the first, ≤ 0.5 for the second.

C30G G38C G52A C55U and C30G G41C C62A cannot be ordered by yeast fitness: ≤ 0.5 for the first, ≤ 0.5 for the second.

C30G G52C C61A and C30G U53C C60A C61A C66G cannot be ordered by yeast fitness: ≤ 0.5 for the first, ≤ 0.5 for the second.

Compared with C30U A40U G51C A57U, C30U A43C G67U is higher in yeast fitness: ≤ 0.5 for the first, 0.571 for the second.

First: C30U A57G C66U
Second: C30U C31U A36U C55A A65U
The yeast fitness of the first is higher: 0.53 for the first, ≤ 0.5 for the second.

C30U C33G C55U G68U and C30U C34A U54A cannot be ordered by yeast fitness: ≤ 0.5 for the first, ≤ 0.5 for the second.

Compared with C30U C34U C46A C61U, C30U C46A G51A is higher in yeast fitness: ≤ 0.5 for the first, 0.608 for the second.

C30U C60G C62G A65C A69C and C30U U32A A36U A37U C62U cannot be ordered by yeast fitness: ≤ 0.5 for the first, ≤ 0.5 for the second.

C31A A43G A45C U64G and C31A C60G G67A cannot be ordered by yeast fitness: ≤ 0.5 for the first, ≤ 0.5 for the second.

First: C31A G41C G50C G56A
Second: C31A G56A A65G C66A G68C
The yeast fitness of the first is lower: ≤ 0.5 for the first, 0.562 for the second.

C31A G56U G67A A70C and C31G A42C G56A C61G cannot be ordered by yeast fitness: ≤ 0.5 for the first, ≤ 0.5 for the second.

Compared with C31G A43U C55A, C31G A45G is higher in yeast fitness: ≤ 0.5 for the first, 0.809 for the second.

C31G C33U A37C C61U A65U and C31G C34U A40C G67A cannot be ordered by yeast fitness: ≤ 0.5 for the first, ≤ 0.5 for the second.

Compared with C31G C55G, C31G C62A is higher in yeast fitness: 0.592 for the first, 0.607 for the second.

Compared with C31G G39C G56A, C31G G41A A43C G51C is higher in yeast fitness: ≤ 0.5 for the first, 0.562 for the second.

First: C31G G41C G50C C60U
Second: C31G G68C
The yeast fitness of the first is lower: ≤ 0.5 for the first, 0.684 for the second.

First: C31G U35C C66U
Second: C31G U53A C55U A57C C60G G67C
The yeast fitness of the first is higher: 0.558 for the first, ≤ 0.5 for the second.

C31U A40G G48C C66U and C31U A40G U53C cannot be ordered by yeast fitness: ≤ 0.5 for the first, ≤ 0.5 for the second.

Compared with C31U A42G C62U A69C, C31U A42G C66A is lower in yeast fitness: 0.542 for the first, ≤ 0.5 for the second.

Going from C31U A42G G58A to C31U C33G A36C A42C C61G, the yeast fitness falls from 0.716 to ≤ 0.5.

C31U C33G A70C and C31U C34U C49U U59G cannot be ordered by yeast fitness: ≤ 0.5 for the first, ≤ 0.5 for the second.

C31U C61A U64A A69U and C31U G41C A43C C60G cannot be ordered by yeast fitness: ≤ 0.5 for the first, ≤ 0.5 for the second.

C31U G41C A43C C60G G63A and C31U G41C A43C C60G G68C cannot be ordered by yeast fitness: ≤ 0.5 for the first, ≤ 0.5 for the second.

C31U G52C A65U and C31U U35A A37G A40C U47C G68C cannot be ordered by yeast fitness: ≤ 0.5 for the first, ≤ 0.5 for the second.

U32A A37G U47A and U32A G39A G63A cannot be ordered by yeast fitness: ≤ 0.5 for the first, ≤ 0.5 for the second.

Going from U32C A40G C62G G68A A69C to U32C A43G A65C, the yeast fitness rises from ≤ 0.5 to 0.913.

Going from U32C C46G C62U to U32C C46G G58C G68U, the yeast fitness falls from 0.733 to ≤ 0.5.

U32C G44A A57G and U32C G52A G58C cannot be ordered by yeast fitness: ≤ 0.5 for the first, ≤ 0.5 for the second.

U32G C33U G67C and U32G C46U G51A cannot be ordered by yeast fitness: ≤ 0.5 for the first, ≤ 0.5 for the second.

Compared with U32G C61U C66U, U32G U35A G38C G51C C66U is higher in yeast fitness: 0.577 for the first, 0.579 for the second.

U32G U35G A36C C61G and C33A A37G G39C C55U C62G cannot be ordered by yeast fitness: ≤ 0.5 for the first, ≤ 0.5 for the second.

C33A A40U C55U C62U and C33A A42C A45C cannot be ordered by yeast fitness: ≤ 0.5 for the first, ≤ 0.5 for the second.

First: C33A C34A
Second: C33A C34U G39C U54A
The yeast fitness of the first is higher: 0.621 for the first, ≤ 0.5 for the second.

First: C33A G39C G41C G44C
Second: C33A U35C A42C A45C U47G
The yeast fitness of the first is higher: 0.549 for the first, ≤ 0.5 for the second.

C33G A42C C46G C49G and C33G C34G A43C G48C A70C cannot be ordered by yeast fitness: ≤ 0.5 for the first, ≤ 0.5 for the second.

C33G C46U A65U and C33G G38C C62A cannot be ordered by yeast fitness: ≤ 0.5 for the first, ≤ 0.5 for the second.

C33G G39A C55U and C33G G58C G68C cannot be ordered by yeast fitness: ≤ 0.5 for the first, ≤ 0.5 for the second.

C33G U47A G50A G51A and C33U A36C A45C G48A C55A cannot be ordered by yeast fitness: ≤ 0.5 for the first, ≤ 0.5 for the second.

First: C33U A36G G50A
Second: C33U A65U
The yeast fitness of the first is lower: ≤ 0.5 for the first, 0.816 for the second.

Going from C33U A69C to C33U C34G, the yeast fitness falls from 0.726 to 0.648.

Compared with C33U C66U, C33U G38A C46U G67A is lower in yeast fitness: 0.651 for the first, ≤ 0.5 for the second.

C34A A40U A43G C62U and C34A A42C G50A G56A cannot be ordered by yeast fitness: ≤ 0.5 for the first, ≤ 0.5 for the second.

Compared with C34A A42U G51U A69U, C34A A42U G58C C60A C62U is higher in yeast fitness: ≤ 0.5 for the first, 0.571 for the second.

In the case of C34A A43C G67C, the yeast fitness is reported as ≤ 0.5.
